What was measured:
in vivo = settings: mouse
[1] = Convulsions (CNS effects) in conscious rats on intravenous administration; settings: rat, in vivo
rabbits = test: Tissue irritation in rabbits, trypan-blue test after intracutaneous injection; settings: rabbit

CCN(CC)CC(=O)Nc1c(C)cccc1C [Lidocaine, lidocaine, reference compound]
LD50 (in vivo): 28 mg/kg
LD50 (in vivo; iv): 28 mg/kg
TD50 [1]: 39 ± 2 mg/kg
Diameter of irritated zone (rabbits; concentration 1.0%): 0.0 mm
Diameter of irritated zone (rabbits; concentration 2.0%): 0.0 mm
Diameter of irritated zone (rabbits; concentration 4.0%): 3.3 mm

Source: patent US4302465A, “Therapeutically active, substituted piperidines and pyrrolidines therapeutic compositions thereof and methods of use thereof” (priority 1979, dated 1981)
